PubChem BioAssay AID1224830, NIAID, 2016

Screen: 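Genes whose knock-down alters the TNF-alpha reporter response to LPS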 (primary screen)
Cells: human THP-1 monocytic leukaemia cells, TNF dual-luciferase reporter clone, PMA-differentiated to macrophage-like cells
Reagents: siRNA pool against human genes, 50 nM
Duration: LPS for 4 h, given about 3 days after siRNA transfection
Challenge: bacterial LPS (TLR4 ligand), 10 ng/ml
Read-out: 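TNF firefly reporter luminescence divided by renilla, normalised to the plate median, then turned into a robust z-score for each replicate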
Direction: TNF reporter robust z-score: higher = stronger TNF reporter response to LPS
Hit rule: 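Each well counts as active if its z-score is over 2.8 or under -1.5; controls are left without a call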
In all, the deposit lists about 18,000 reagents; shown is an unselected part. About 2,900 of them (16%) were called active. 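Calls are made per well; low scores hint the gene aids the LPS response, high scores that it dampens it.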 Repeated entries: four replicate wells of each siRNA pool.

UBE2D3 → TNF reporter robust z-score: -0.23; call: inactive
UBE2D3 → TNF reporter robust z-score: -0.18; call: inactive
UBE2D3 → TNF reporter robust z-score: 0.04; call: inactive
UBE2D3 → TNF reporter robust z-score: -0.03; call: inactive
FOXP2 → TNF reporter robust z-score: -0.4; call: inactive
FOXP2 → TNF reporter robust z-score: 0.37; call: inactive
FOXP2 → TNF reporter robust z-score: -0.51; call: inactive
FOXP2 → TNF reporter robust z-score: 0.7; call: inactive
CLPP → TNF reporter robust z-score: -0.78; call: inactive
CLPP → TNF reporter robust z-score: 0.37; call: inactive
CLPP → TNF reporter robust z-score: -1.04; call: inactive
CLPP → TNF reporter robust z-score: -0.99; call: inactive
CYB5R3 → TNF reporter robust z-score: -1.21; call: inactive
CYB5R3 → TNF reporter robust z-score: -0.92; call: inactive
CYB5R3 → TNF reporter robust z-score: -0.87; call: inactive

In a second layout: entries from further up.
gene	TNF reporter robust z-score	call
CYB5R3	-1.21	inactive
CYB5R3	-0.92	inactive
CYB5R3	-0.87	inactive

More records follow:
MGP → TNF reporter robust z-score: 1.46; call: inactive
MGP → TNF reporter robust z-score: 2.05; call: inactive
MGP → TNF reporter robust z-score: -0.28; call: inactive
MGP → TNF reporter robust z-score: 0.27; call: inactive
MICU1 → TNF reporter robust z-score: -0.44; call: inactive
MICU1 → TNF reporter robust z-score: -0.82; call: inactive
MICU1 → TNF reporter robust z-score: -0.22; call: inactive
MICU1 → TNF reporter robust z-score: -0.43; call: inactive
TBC1D23 → TNF reporter robust z-score: 0.85; call: inactive
TBC1D23 → TNF reporter robust z-score: 0.58; call: inactive
TBC1D23 → TNF reporter robust z-score: 2.53; call: inactive
TBC1D23 → TNF reporter robust z-score: 2.96; call: active
ADORA1 → TNF reporter robust z-score: 0.19; call: inactive
ADORA1 → TNF reporter robust z-score: 1.91; call: inactive
ADORA1 → TNF reporter robust z-score: 1.42; call: inactive
ADORA1 → TNF reporter robust z-score: 0.85; call: inactive
CAMK1G → TNF reporter robust z-score: -1.09; call: inactive
CAMK1G → TNF reporter robust z-score: -0.06; call: inactive
CAMK1G → TNF reporter robust z-score: 0.13; call: inactive
CAMK1G → TNF reporter robust z-score: 0.63; call: inactive
